# Record: PubChem BioAssay AID1259254 (NCATS, 2017)
# Purpose: 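Finding genes that stop cells copying their DNA twice in one cycle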 (primary screen)
# Cell system: human HCT116 colorectal cancer cells
# Reagents: single siRNA against human genes
# Time to read-out: 3 days
# Detection: 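Nuclei stained with Hoechst and imaged; cell-cycle phase assigned by DNA content; G2 share scaled per plate, non-targeting siRNA 0%, GMNN siRNA 100%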
# Scale: G2 robust z-score: higher = more G2 cells, more excess DNA replication
# Hit rule: 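An siRNA counts as active if its G2 robust z-score lies at least 5 MADs above the screen median; here such calls match roughly 38% of GMNN control or more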
# This is one part, drawn at random, of about 59,000 deposited reagents. About 1,550 of them (2.6%) were called active. 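G2 share is only a proxy for re-replication; each gene was hit by three separate siRNAs, and active genes were retested.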 Reagents against one gene are numbered here. Further read-outs or replicates are left out here. The record does not give: the amount of reagent.
The opening 2 records, ahead of the listing:
Gene,siRNA no.,G2 robust z-score,Call
PALM2AKAP2 (PALM2 and AKAP2 fusion),1,-0.88,inactive
PALM2AKAP2 (PALM2 and AKAP2 fusion),2,0.056,inactive

Results, repeating the preview:
Gene,siRNA no.,G2 robust z-score,Call
PALM2AKAP2 (PALM2 and AKAP2 fusion),1,-0.88,inactive
PALM2AKAP2 (PALM2 and AKAP2 fusion),2,0.056,inactive
PALM2AKAP2 (PALM2 and AKAP2 fusion),3,0.305,inactive
PALM2AKAP2 (PALM2 and AKAP2 fusion),4,-0.41,inactive
PALM2AKAP2 (PALM2 and AKAP2 fusion),5,0.741,inactive
PALM2AKAP2 (PALM2 and AKAP2 fusion),6,0.602,inactive
LMOD2 (leiomodin 2),1,-0.433,inactive
LMOD2 (leiomodin 2),2,1.08,inactive
LMOD2 (leiomodin 2),3,-0.143,inactive
ZDBF2 (zinc finger DBF-type containing 2),1,-0.746,inactive
ZDBF2 (zinc finger DBF-type containing 2),2,-0.269,inactive
ZDBF2 (zinc finger DBF-type containing 2),3,-1.13,inactive
PTGS1 (prostaglandin-endoperoxide synthase 1),1,-0.577,inactive
PTGS1 (prostaglandin-endoperoxide synthase 1),2,-0.524,inactive
PTGS1 (prostaglandin-endoperoxide synthase 1),3,-0.326,inactive
EFCAB9 (EF-hand calcium binding domain 9),1,-0.422,inactive
EFCAB9 (EF-hand calcium binding domain 9),2,-0.692,inactive
EFCAB9 (EF-hand calcium binding domain 9),3,-1.25,inactive
CPEB1 (cytoplasmic polyadenylation element binding protein 1),1,-0.86,inactive
CPEB1 (cytoplasmic polyadenylation element binding protein 1),2,-0.82,inactive
CPEB1 (cytoplasmic polyadenylation element binding protein 1),3,-0.469,inactive
TMC8 (transmembrane channel like 8),1,-0.169,inactive
TMC8 (transmembrane channel like 8),2,-0.827,inactive
TMC8 (transmembrane channel like 8),3,0.186,inactive
NELL1 (neural EGFL like 1),1,-0.296,inactive
NELL1 (neural EGFL like 1),2,-1.22,inactive
NELL1 (neural EGFL like 1),3,5.3,active
OR52A1 (olfactory receptor family 52 subfamily A member 1),1,4.41,inactive
OR52A1 (olfactory receptor family 52 subfamily A member 1),2,-0.718,inactive
OR52A1 (olfactory receptor family 52 subfamily A member 1),3,-0.563,inactive
